Experimental data as given in paper PMC7738898.
Results are given in words; binding and its absence hold for the method and conditions named. In cells and extracts the contact can be indirect. Some results given as binding are weak or reduced against the parent protein; the word gives no strength.

By UniProt entry, the sequences of proteins in these tests, tags left out. Where a name states a change or a piece, a line headed by the entry shows the natural chain unless it says otherwise. Residues count along the entry.
UniProt P42224: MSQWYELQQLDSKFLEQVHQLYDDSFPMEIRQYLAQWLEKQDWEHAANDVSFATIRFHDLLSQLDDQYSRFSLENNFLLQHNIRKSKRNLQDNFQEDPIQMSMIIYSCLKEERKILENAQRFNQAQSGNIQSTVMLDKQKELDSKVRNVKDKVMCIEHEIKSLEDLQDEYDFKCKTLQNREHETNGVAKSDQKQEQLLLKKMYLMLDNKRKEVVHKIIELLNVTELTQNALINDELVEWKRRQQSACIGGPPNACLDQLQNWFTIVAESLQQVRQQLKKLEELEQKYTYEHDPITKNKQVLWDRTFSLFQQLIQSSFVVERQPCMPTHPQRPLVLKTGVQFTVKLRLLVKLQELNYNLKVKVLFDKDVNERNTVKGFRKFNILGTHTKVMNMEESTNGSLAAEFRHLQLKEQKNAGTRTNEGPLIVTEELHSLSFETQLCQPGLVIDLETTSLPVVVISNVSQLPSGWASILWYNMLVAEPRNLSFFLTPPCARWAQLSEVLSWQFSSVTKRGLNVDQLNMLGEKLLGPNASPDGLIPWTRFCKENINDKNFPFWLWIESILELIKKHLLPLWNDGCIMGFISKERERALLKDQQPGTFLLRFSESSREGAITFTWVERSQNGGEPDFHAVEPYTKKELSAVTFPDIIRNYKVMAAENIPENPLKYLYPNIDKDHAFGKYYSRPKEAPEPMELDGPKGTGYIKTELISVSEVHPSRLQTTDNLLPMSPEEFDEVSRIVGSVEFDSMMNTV
UniProt O75159: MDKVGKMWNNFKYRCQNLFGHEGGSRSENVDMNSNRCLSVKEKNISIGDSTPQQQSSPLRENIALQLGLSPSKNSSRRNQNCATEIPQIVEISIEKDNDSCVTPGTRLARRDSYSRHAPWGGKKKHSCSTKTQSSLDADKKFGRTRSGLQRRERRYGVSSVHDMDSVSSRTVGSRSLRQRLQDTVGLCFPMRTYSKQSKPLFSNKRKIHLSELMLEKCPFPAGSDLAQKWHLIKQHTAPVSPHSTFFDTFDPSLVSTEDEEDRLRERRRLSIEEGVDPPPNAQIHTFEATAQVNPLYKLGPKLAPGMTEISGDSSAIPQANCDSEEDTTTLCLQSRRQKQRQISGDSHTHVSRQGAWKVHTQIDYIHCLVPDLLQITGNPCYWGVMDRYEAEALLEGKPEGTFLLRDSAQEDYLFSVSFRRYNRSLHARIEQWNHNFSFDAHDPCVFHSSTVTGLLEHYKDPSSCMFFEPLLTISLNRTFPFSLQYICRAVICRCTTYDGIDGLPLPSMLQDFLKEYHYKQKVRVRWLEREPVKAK
UniProt P12109, residues 20-1028: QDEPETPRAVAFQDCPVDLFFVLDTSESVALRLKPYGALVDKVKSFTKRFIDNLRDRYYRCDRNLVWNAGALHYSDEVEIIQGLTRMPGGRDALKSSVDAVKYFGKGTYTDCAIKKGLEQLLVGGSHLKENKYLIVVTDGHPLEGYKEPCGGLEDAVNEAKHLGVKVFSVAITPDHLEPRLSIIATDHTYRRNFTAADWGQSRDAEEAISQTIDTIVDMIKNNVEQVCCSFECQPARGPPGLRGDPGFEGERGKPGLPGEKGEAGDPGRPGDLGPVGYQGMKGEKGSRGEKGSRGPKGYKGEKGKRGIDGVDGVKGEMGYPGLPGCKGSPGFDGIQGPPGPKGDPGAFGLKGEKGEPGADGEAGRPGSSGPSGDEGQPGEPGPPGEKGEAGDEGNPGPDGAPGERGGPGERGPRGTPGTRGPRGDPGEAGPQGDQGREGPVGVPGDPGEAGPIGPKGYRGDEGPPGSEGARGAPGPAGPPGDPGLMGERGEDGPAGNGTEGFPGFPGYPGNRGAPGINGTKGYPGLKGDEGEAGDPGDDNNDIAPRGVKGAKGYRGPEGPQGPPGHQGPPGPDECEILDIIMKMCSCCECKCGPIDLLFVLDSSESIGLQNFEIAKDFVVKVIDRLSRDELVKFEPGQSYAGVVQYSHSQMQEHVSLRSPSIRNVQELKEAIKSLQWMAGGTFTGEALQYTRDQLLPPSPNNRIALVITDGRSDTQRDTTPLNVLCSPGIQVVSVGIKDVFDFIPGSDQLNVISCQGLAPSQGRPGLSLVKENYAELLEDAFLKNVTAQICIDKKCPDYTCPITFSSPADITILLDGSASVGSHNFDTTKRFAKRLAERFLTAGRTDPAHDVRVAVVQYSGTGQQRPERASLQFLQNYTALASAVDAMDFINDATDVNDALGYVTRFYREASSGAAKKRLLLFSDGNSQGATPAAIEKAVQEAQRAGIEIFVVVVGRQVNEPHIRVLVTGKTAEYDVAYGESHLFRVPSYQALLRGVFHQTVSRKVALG

Key:
[1] = target: GFP-tagged STAT1 (S727A) (UniProt P42224); assay: co-IP; Figure S6C-D; COL6A1 pulled down with wild-type or mutant STAT1; cells and antibodies not shown
[2] = target: GFP-tagged STAT1 (Y701A) (UniProt P42224); assay: as above
[3] = target: GFP-tagged wild type STAT1 (UniProt P42224); assay: as above
[4] = target: endogenous SOCS5 (suppressor of cytokine signaling 5) (human (endogenous in U2OS)) (UniProt O75159); assay: co-IP; U2OS cells after COL6A1 transfection; endogenous STAT1 and SOCS5; precipitating antibody not told
[5] = target: endogenous STAT1 (signal transducer and activator of transcription 1) (human (endogenous in U2OS)) (UniProt P42224); assay: as above
[6] = target: GFP-tagged wild type STAT1 (UniProt P42224); assay: co-IP; 293T cells with GFP-STAT1 and Flag-COL6A1 (wild type or VWFA domain deletion mutants); cell lysates incubated with antibody-conjugated beads at 4 °C for 2 h, western blot

Substance | binding [1] | binding [2] | binding [3] | binding [4] | binding [5] | binding [6]
COL6A1 (collagen type VI alpha 1), transfected expression vector (from UniProt P12109 20-1028) | binds | binds | binds | binds | binds | –
Flag-COL6A1 wild type (collagen type VI alpha 1) (from UniProt P12109 20-1028) | – | – | – | – | – | binds
endogenous STAT1 (signal transducer and activator of transcription 1) (from UniProt P42224 1-750) | – | – | – | binds | – | –
